From PMC11164485
Results are given in words; binding and its absence hold for the method and conditions named. In cells and extracts the contact can be indirect. Some entries that bind do so weakly or less than the wild type.

Amino acid sequences for entries named in this document (tags omitted).
UniProt P52631: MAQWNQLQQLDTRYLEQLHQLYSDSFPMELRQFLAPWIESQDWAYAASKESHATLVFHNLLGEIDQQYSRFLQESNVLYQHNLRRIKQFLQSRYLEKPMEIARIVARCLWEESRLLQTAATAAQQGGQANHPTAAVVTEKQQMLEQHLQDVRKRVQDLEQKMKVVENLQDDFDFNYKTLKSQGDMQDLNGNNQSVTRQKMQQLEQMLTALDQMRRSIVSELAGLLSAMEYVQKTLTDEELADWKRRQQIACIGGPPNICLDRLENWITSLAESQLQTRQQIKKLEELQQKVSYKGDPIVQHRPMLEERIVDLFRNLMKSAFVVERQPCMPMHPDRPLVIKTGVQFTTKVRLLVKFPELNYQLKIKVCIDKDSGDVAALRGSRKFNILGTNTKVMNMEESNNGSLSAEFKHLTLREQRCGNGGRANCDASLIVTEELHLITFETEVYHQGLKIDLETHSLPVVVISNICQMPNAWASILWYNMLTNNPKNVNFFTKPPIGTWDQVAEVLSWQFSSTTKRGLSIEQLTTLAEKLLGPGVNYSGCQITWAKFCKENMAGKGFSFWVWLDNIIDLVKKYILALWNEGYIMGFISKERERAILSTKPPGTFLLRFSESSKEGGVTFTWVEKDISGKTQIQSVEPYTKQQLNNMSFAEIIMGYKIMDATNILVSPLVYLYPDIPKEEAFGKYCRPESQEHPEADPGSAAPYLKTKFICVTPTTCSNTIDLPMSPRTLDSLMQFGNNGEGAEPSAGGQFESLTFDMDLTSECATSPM

Experiments:
[1] = target: p-STAT3 (rat (endogenous in rat primary cardiomyocytes)) (UniProt P52631); assay: co-IP; lysate of rat primary cardiomyocytes (IP lysis buffer) incubated with STAT3 antibody or p-STAT3 antibody at 4 C overnight, protein A/G beads 1 h at 4 C; IgG as negative control; APOC1 detected by western blot
[2] = target: STAT3 (rat (endogenous in rat primary cardiomyocytes)) (UniProt P52631); assay: as above

binding [1]: binds
binding [2]: binds
B1: APOC1 (protein, UniProt P19939 27-88)
chain: APDFSSAMESLPDKLKEFGNTLEDKARAAIEHIKQKEIMIKTRNWFSETLNKMKEKLKTTFA
